Data from paper PMC3227594.
These are yes or no findings as the source states them, for the method shown. Binding seen in cells or lysates may run through a third protein. Some entries that bind do so weakly or less than the wild type.

The chains behind the UniProt entries cited, without tags or fusion partners.
UniProt Q06945: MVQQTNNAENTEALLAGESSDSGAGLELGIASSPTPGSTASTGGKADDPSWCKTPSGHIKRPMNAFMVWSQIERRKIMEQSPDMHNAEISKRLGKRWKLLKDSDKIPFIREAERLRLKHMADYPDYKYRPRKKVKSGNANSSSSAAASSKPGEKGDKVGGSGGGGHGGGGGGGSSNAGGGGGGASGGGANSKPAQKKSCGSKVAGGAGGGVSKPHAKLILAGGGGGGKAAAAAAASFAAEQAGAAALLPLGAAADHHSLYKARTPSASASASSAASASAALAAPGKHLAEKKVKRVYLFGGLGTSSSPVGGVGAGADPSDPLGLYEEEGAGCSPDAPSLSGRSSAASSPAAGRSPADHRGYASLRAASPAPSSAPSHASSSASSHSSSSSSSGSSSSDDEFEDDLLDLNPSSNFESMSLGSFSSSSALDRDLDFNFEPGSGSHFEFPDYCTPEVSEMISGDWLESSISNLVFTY

B1: Junction plakoglobin (JUP) (protein, UniProt P14923 1-745)
chain: MEVMNLMEQPIKVTEWQQTYTYDSGIHSGANTCVPSVSSKGIMEEDEACGRQYTLKKTTTYTQGVPPSQGDLEYQMSTTARAKRVREAMCPGVSGEDSSLLLATQVEGQATNLQRLAEPSQLLKSAIVHLINYQDDAELATRALPELTKLLNDEDPVVVTKAAMIVNQLSKKEASRRALMGSPQLVAAVVRTMQNTSDLDTARCTTSILHNLSHHREGLLAIFKSGGIPALVRMLSSPVESVLFYAITTLHNLLLYQEGAKMAVRLADGLQKMVPLLNKNNPKFLAITTDCLQLLAYGNQESKLIILANGGPQALVQIMRNYSYEKLLWTTSRVLKVLSVCPSNKPAIVEAGGMQALGKHLTSNSPRLVQNCLWTLRNLSDVATKQEGLESVLKILVNQLSVDDVNVLTCATGTLSNLTCNNSKNKTLVTQNSGVEALIHAILRAGDKDDITEPAVCALRHLTSRHPEAEMAQNSVRLNYGIPAIVKLLNQPNQWPLVKATIGLIRNLALCPANHAPLQEAAVIPRLVQLLVKAHQDAQRHVAAGTQQPYTDGVRMEEIVEGCTGALHILARDPMNRMEIFRLNTIPLFVQLLYSSVENIQRVAAGVLCELAQDKEAADAIDAEGASAPLMELLHSRNEGTATYAAAVLFRISEDKNPDYRKRVSVELTNSLFKHDPAAWEAAQSMIPINEPYGDDMDATYRPMYSSDVPLDPLEMHMDMDGDYPIDTYSDGLRPPYPTADHMLA

Experiments:
[1] = target: T1, Junction plakoglobin (JUP) (human (endogenous in LNCaP, PC3M, primary human keratinocytes, MDA-MB-231)) (UniProt P14923); assay: co-IP; anti-plakoglobin IP of endogenous plakoglobin from LNCaP whole cell lysate (transfected or untransfected); blot with anti-HA 16B12 or for endogenous SOX4
T1 sequence: B1 chain

[2] = target: T1, Junction plakoglobin (JUP) (human (endogenous in LNCaP, PC3M, primary human keratinocytes, MDA-MB-231)); assay: co-IP; anti-plakoglobin IP from whole cell lysates of primary human keratinocytes and MDA-MB-231, lysates treated with DNase I for 1 hr at room temperature before IP; blot for endogenous SOX4
[3] = target: HA-tagged SOX4 (stably expressed) (human) (UniProt Q06945); assay: co-IP; HASOX4 IP from whole cell lysates of PC3M and LNCaP cells stably expressing HA-SOX4, lysates treated with DNase I for 1 hr at room temperature before IP; blot for endogenous plakoglobin
[4] = target: HA-tagged SOX4 (stably expressed) (human) (UniProt Q06945); assay: co-IP; anti-HA IP from separate cytosolic and nuclear fractions of LNCaP HASOX4 stable cells treated with vehicle, WNT3A, LMB or both; blot for plakoglobin
[5] = target: HA-tagged SOX4 (stably expressed) (human) (UniProt Q06945); assay: co-IP; anti-HA IP from whole cell lysate of LNCaP HASOX4 stable cells treated with vehicle, WNT3A (100 ng/ml), LMB (20 μM) or both for 24 hrs; blot for plakoglobin

Molecule	binding [1]	binding [2]	binding [3]	binding [4]	binding [5]
SOX4 (endogenous) (from UniProt Q06945 1-474)	binds	binds	–	–	–
B1	–	–	binds	binds	binds
